For assay [1], the target named is EphA2 ligand-binding domain (residues 23 to 202), insect cell (human) (UniProt P29317). Description: crystal structure; both purified.
Assay [2] deals with Full-length EphA2 wild type tagged with mTurquoise or eYFP, on HEK293T cells (human) (UniProt P29317). Description: FRET or BRET. For orientation: BRET reads energy transfer from a luciferase to a nearby fluorophore.
For assay [3] the target is unchanged. Description: fluorescence intensity fluctuation (FIF); molecular brightness of EphA2 WT-eYFP in the membrane of HEK293T cells; untreated (no ligand); compared with LAT (monomer) and E-cadherin (dimer) controls.

The chains behind the UniProt entries cited, without tags or fusion partners. Where a name states a change or a piece, a line headed by the entry shows the natural chain unless it says otherwise. Residues count along the entry.
UniProt P29317: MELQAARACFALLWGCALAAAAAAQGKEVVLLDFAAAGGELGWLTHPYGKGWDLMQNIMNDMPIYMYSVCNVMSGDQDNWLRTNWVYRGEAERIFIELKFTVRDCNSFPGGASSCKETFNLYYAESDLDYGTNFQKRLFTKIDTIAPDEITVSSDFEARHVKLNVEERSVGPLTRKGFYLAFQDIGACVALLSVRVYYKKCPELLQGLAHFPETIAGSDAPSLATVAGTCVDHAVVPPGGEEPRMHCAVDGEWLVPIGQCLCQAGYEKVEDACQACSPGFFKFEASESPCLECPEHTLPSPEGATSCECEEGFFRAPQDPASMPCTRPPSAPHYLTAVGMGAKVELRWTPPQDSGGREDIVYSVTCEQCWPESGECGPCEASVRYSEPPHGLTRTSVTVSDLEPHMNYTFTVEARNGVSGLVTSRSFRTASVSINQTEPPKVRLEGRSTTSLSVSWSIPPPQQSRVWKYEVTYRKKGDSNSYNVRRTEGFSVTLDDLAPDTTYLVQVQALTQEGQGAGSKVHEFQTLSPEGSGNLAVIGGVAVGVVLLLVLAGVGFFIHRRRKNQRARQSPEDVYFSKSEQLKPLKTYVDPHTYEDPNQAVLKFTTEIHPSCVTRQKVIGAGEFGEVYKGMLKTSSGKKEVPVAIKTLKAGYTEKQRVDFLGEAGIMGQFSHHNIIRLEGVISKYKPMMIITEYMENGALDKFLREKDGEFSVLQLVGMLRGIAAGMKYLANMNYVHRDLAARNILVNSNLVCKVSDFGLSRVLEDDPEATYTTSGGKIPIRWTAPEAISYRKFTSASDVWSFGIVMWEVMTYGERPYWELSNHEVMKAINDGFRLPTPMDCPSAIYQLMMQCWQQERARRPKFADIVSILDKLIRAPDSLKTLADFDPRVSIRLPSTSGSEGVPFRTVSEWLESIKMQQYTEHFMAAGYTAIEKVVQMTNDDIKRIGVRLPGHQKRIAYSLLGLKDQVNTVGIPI
EphA2 ligand-binding domain (residues 23 to 202), insect cell: residues 23-202 of P29317
UniProt F5HAK9, residues 26-704: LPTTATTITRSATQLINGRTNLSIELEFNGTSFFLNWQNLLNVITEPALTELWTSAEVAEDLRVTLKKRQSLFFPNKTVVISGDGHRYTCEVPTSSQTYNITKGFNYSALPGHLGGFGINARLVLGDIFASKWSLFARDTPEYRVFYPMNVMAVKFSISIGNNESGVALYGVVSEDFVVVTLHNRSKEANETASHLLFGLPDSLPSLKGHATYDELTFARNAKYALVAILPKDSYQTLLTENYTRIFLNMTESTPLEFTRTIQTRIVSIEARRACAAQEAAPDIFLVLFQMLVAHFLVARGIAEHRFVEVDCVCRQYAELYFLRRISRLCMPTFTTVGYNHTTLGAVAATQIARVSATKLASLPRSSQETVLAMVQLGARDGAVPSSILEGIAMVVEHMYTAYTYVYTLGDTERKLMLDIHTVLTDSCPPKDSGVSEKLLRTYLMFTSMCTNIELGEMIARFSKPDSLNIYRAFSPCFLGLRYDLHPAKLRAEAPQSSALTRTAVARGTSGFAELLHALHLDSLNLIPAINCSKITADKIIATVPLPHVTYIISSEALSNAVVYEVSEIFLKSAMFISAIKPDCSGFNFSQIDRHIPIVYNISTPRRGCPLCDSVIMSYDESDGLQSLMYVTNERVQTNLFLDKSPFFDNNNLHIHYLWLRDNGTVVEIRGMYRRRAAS

These are yes or no findings as the source states them, for the method shown. For part of these data: Binding seen in cells or lysates may run through a third protein. Some results given as binding are weak or reduced against the parent protein; the word gives no strength.

As for “HHV-8 glycoprotein H ectodomain (residues 26 to 704) (from UniProt F5HAK9 26-704) (domain or fragment)”, the binding entry in assay [1] was “binds”.
For “Full-length EphA2 wild type tagged with mTurquoise or eYFP, on HEK293T cells (from UniProt P29317 24-976) (receptor)”, the binding entry in assay [2] and in assay [3] was “binds” in each case.

The values are drawn from article PMC8454987 (PLoS Biology, 2021).
